Hit rate of the full screen: of about 360,000 compounds, about 7,500 (2.1%) were called active. The inconclusive results got no clear call from the source; some entries with a clear call stand among them for comparison. Calls follow the shape of the dose curve; as a rule, active = well fitted inhibition curve with a large enough effect; inconclusive = small, poorly fitted or top-dose-only effect, or effect the other way; inactive = flat fitted curve, though single readings scatter. A potency beside an inconclusive call is a rough fit, not a confirmed value. Where a structure was tested more than once in an assay, its records may differ in their call.
Assay: Nrf2 qHTS screen for inhibitors; also: nearly all actives have a fitted effect of over 60% in size
Conditions: A549 ARE-Fluc reporter, luciferase luminescence, 18-24 h; activity change, negative = inhibition: at 46 µM (top of the series)
In short: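 In this cell-based qHTS, ARE-driven firefly luciferase in A549 cells reports Nrf2 activity; the luminescent signal after BugLite lysis is the measured value, with a prior CellTiter-Fluor read for cell health.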
% is scaled to controls: 0 for no effect and ±100 for the full control effect; potency is read from the fitted curve at half-maximal effect.

| Compound | Potency | activity change, negative = inhibition |
| --- | --- | --- |
| CCn1cc(Br)c(C(=O)Nc2ccc(Cl)cc2Cl)n1 | inconclusive: 7.31 µM [activator, partial curve] |  |
| CCc1ccc(C(=O)NNC(=O)c2ccc(=O)n(C)n2)cc1 | inactive |  |
| COc1ccc(C2CC(C(F)(F)F)n3nc(C(=O)Nc4ccc5c(c4)OCO5)cc3N2)cc1 (stereo unspecified) | inconclusive: 18.4 µM [falling, partial curve, poor fit] |  |
| COc1ccc(-c2nc3ccccc3s2)cc1NC(=O)COc1ccc(C)cc1 | inconclusive: 1.84 µM [activator, full curve] |  |
| CC(SCc1ccccc1)C(=O)Nc1ccc(F)cc1 (stereo unspecified) | inactive |  |
| CCOc1ccc2[nH]c(=O)c(CN(CCO)Cc3nnnn3CCc3ccccc3)cc2c1 | inactive |  |
| Cc1onc(-c2ccccc2)c1C(=O)OCC(=O)N1CCN(c2ccccc2)CC1 | inconclusive: 16.4 µM [falling, partial curve, poor fit] |  |
| N#C/C(=C(/O)COC(=O)CSc1ccc(Cl)cc1)c1nc2ccccc2[nH]1 | inactive |  |
| CC1=NN(C(=O)CSCc2ccccc2)C(O)(c2ccc(Cl)cc2)C1 (stereo unspecified) | inconclusive: 20.6 µM [falling, single point] |  |
| Cc1onc(-c2ccccc2Cl)c1C(=O)N1CCOC12CCN(c1cccc(F)n1)CC2 | inactive |  |
| COc1ccc(-n2ncc3c(NCc4ccc5c(c4)OCO5)ncnc32)cc1 | inconclusive: 6.51 µM [activator, partial curve, poor fit] |  |
| Cc1cc(=O)oc2cc(OCCCC[n+]3ccccc3)ccc12 | inconclusive: 25.9 µM [activator, partial curve] |  |
| O=C(Nc1ccc2c(c1)OCCO2)c1cccc(Br)c1 | inconclusive: 1.64 µM [activator, full curve] |  |
| CCOC(=O)N1CCN(C(=O)c2ccc(SC)cc2OC)CC1 | active: 11.6 µM |  |
| CCc1ccccc1NC(=O)CNC(=O)c1n[nH]c(=O)c2ccccc12 | inconclusive: 18.4 µM [falling, partial curve, poor fit] |  |
| C=CCn1c(SCC(=O)NCCCC)nc2scc(-c3ccco3)c2c1=O | inactive |  |
| CCc1cccc(N(C(=O)c2csnn2)C(C(=O)NC(C)(C)C)c2ccncc2)c1 (stereo unspecified) | inconclusive: 0.82 µM [activator, full curve, poor fit] |  |
| CN(C)c1ccc(Nc2nc(-c3cccnc3)cs2)cc1 | inconclusive: 0.82 µM [activator, full curve] |  |
| Cc1ccc(C(=O)Nc2cccc(-c3nc4cccnc4s3)c2C)cc1 | inconclusive: 0.82 µM [falling, full curve, poor fit] |  |
| CCc1nnc(NC(=O)c2ccc(OC)cc2)s1 | inconclusive: 16.4 µM [activator, partial curve] |  |
| CN(C)S(=O)(=O)c1ccc(Cl)c(C(=O)Nc2nc3ccccc3[nH]2)c1 | inconclusive: 29.1 µM [activator, single point] |  |
| O=C(Cc1ccccn1)c1ccccc1 | inconclusive: 25.9 µM [activator, partial curve, poor fit] |  |

| Compound | Potency | activity change, negative = inhibition |
| --- | --- | --- |
| Cc1cc(C(=O)NC2CCCN(Cc3ccc(Cl)cc3)C2)n(C)n1 (stereo unspecified) | inconclusive: 16.4 µM [falling, single point] |  |
| CCOC(=O)C1CCN(C(=O)CCS(=O)(=O)c2cc3c(cc2Cl)NC(=O)CO3)CC1 | inconclusive: 29.1 µM [falling, single point] |  |
| O=C(CSc1nnc(CNc2ccc(Cl)cc2)o1)Nc1nc2c(s1)CCCC2 | inconclusive: 25.9 µM [falling, single point] |  |
| CCOC(=O)CSc1nc(Nc2ccc3c(c2)OCO3)c2ccccc2n1 | inconclusive: 18.4 µM [activator, partial curve, poor fit] |  |
| CC(C)CCNC(=O)[C@H](CSCc1ccccc1)N1Cc2ccccc2C1=O | inconclusive: 20.6 µM [falling, single point] |  |
| COc1ccc(C(=O)Nc2ccccc2C(=O)N/N=C/c2ccccc2OC)cc1 | inconclusive: 8.2 µM [activator, partial curve] |  |
| N=c1c2c(n(Cc3ccc([N+](=O)[O-])cc3)c3c1CCC3)CCCC2 | inconclusive: 9.2 µM [falling, partial curve, poor fit] |  |
| COc1ccc(/C=N/NC(=O)c2ccc(CSc3nc(C)cc(C)n3)cc2)cc1O | active: 20.6 µM |  |
| Cc1ccc(C(=O)n2c(-c3ccccc3)cnc2SCC(=O)Nc2ccccc2)cc1 | inconclusive: 6.51 µM [falling, full curve] |  |
| CC(C)(C)NS(=O)(=O)c1ccc(NC(=S)NC(=O)C2CCC2)cc1 | inconclusive: 13 µM [falling, partial curve, poor fit] |  |
| CC(=O)Nc1cccc(NC(=O)CN2c3cccc4cccc(c34)S2(=O)=O)c1 | inconclusive: 32.6 µM [falling, single point] |  |
| Cc1ccccc1NC(=O)CSc1nc(-c2ccccc2C)nc2cc(=O)[nH]n12 | inactive |  |
| COc1ccc(/C(C)=N/Nc2cccc(C(=O)O)c2)cc1OC | inconclusive: 8.2 µM [activator, partial curve] |  |
| O=C(COC(=O)c1ccc2c(c1)S(=O)(=O)c1ccccc1C2=O)NC1CC1 | inactive |  |
| COc1ccccc1N(CC(=O)NCCSCc1ccccc1)S(=O)(=O)c1ccc(C)cc1 | active: 14.6 µM |  |
| CCOc1ccccc1NC(=O)CSc1nc(N)c(C#N)cc1C#N | inconclusive: 2.31 µM [falling, partial curve] |  |
| CN(Cc1ccccc1)C(=O)c1ccc2c(c1)OCCO2 | inconclusive: 25.9 µM [activator, single point] |  |
| O=C1CN(C(=O)Cc2ccc(F)cc2)C(c2ccccc2)c2cc(Cl)ccc2N1 (stereo unspecified) |  | inactive: 0.875% [at 9.27 µM] |
| COc1ccc(C(=O)Cn2nnc(-c3ccccc3NC(=O)c3ccco3)n2)cc1 | active: 18.4 µM |  |
| COc1ccc(OCc2cc(C(=O)N(C)CC3CCCCO3)no2)c(Cl)c1 (stereo unspecified) | inconclusive: 23.1 µM [activator, single point] |  |
| Cc1cc(C)cc(N2C(=O)C=CC2=O)c1 | inconclusive: 25.9 µM [falling, single point] |  |
| COCCn1cnc2c1c(=O)n(Cc1c(F)cccc1Cl)c(=O)n2Cc1ccccc1 | inconclusive: 5.8 µM [falling, partial curve, poor fit] |  |

| Compound | Potency | activity change, negative = inhibition |
| --- | --- | --- |
| O=C(CC1C(=O)N(c2ccccc2)C(=O)N1CCC1=CCCCC1)Nc1ccc(F)cc1 (stereo unspecified) | inactive |  |
| Cc1ccccc1N(CC(=O)NC1CCCC1)C(=O)C1(C)CC(=O)N=C2C=CC=CN21 (stereo unspecified) | inconclusive: 29.1 µM [activator, single point] |  |
| CCNc1ncnc2[nH]ncc12 | inconclusive: 6.51 µM [falling, partial curve, poor fit] |  |
| CCOc1cc(NC(=S)Nc2cccc(OC)c2)c(OCC)cc1NC(=O)C1CC1 | inconclusive: 29.1 µM [falling, single point] |  |
| CCOC(=O)c1c(C)[nH]c(C)c1S(=O)(=O)N(C)CC(=O)Nc1ccccc1F | inconclusive: 2.06 µM [activator, partial curve, poor fit] |  |
| CCNc1ccccc(-c2ccc3ccccc3n2)c1=O | inconclusive: 29.1 µM [activator, single point] |  |
| CCc1ccccc1NC(=O)c1ccc(CN2CCC(Cc3ccccc3)CC2)cc1 | inconclusive: 20.6 µM [falling, single point] |  |
| CCn1c(=O)n(CC)c2cc(S(=O)(=O)Nc3c(C)cccc3C)ccc21 | inconclusive: 13 µM [falling, partial curve, poor fit] |  |
| COC(=O)c1cccc(-n2c(CCC(=O)O)ccc2-c2ccc(OC)cc2)c1 | inactive |  |
| CCOc1ccc(/C=N/NC(=O)c2cc3c(OC)cc(OC)c(OC)c3[nH]2)cc1 | inconclusive: 18.4 µM [falling, partial curve, poor fit] |  |
| COc1cccc(CNC(=O)CCc2cn(Cc3ccccc3Cl)c3ccccc23)c1 | inconclusive: 18.4 µM [falling, single point] |  |
| Fc1ccccc1N=C1NN=C(c2ccccc2)CS1 | inconclusive: 32.6 µM [falling, single point] |  |
| CCOc1ccc(C(=O)C2CCN(C(=O)c3ccc([N+](=O)[O-])cc3)CC2)cc1 | inconclusive: 29.1 µM [falling, partial curve, poor fit] |  |
| COc1ccc(Cn2c(SCc3ccc(C(=O)NC4CCCC4)cc3)nc3ccncc32)cc1 | active: 16.4 µM |  |
| O=C(CNC1C(=O)Nc2ccccc21)Sc1ccccc1 (stereo unspecified) | inconclusive: 8.2 µM [falling, partial curve, poor fit] |  |
| CC1CCN(c2ccc(-c3cccc(NC(=O)c4ccco4)c3)nn2)CC1 | inconclusive: 16.4 µM [falling, single point] |  |
| c1ccc(C2=NNC(=NCc3ccc4c(c3)OCO4)SC2)cc1 | inconclusive: 25.9 µM [activator, single point] |  |
| CCOC(=O)c1c(C)oc2ncnc(N3CCN(c4ccccc4OC)CC3)c12 | inconclusive: 8.2 µM [falling, full curve, poor fit] |  |
| CC1CC2(C)C(=CC1=O)CCC1C2C(O)CC2(C)C1CCC2(O)C(=O)CO (stereo unspecified) | active: 0.116 µM |  |
| O=C(COc1ccc2oc3c(c2c1)CCCC3)Nc1ccc(Br)cc1 | inactive |  |
| CC1CCC2(CC1)NC(=O)N(CC(=O)Nc1cc(S(=O)(=O)N3CCCC3)ccc1Cl)C2=O (stereo unspecified) | inconclusive: 14.6 µM [falling, partial curve, poor fit] |  |
| O=[N+]([O-])c1ccc(N2CCN(c3ccccn3)CC2)c(Cl)c1 | inconclusive: 16.4 µM [falling, partial curve, poor fit] |  |

As a short view, some entries already given.

| Compound | Potency | activity change, negative = inhibition |
| --- | --- | --- |
| O=C(CNC1C(=O)Nc2ccccc21)Sc1ccccc1 (stereo unspecified) | inconclusive: 8.2 µM [falling, partial curve, poor fit] |  |
| CC1CCN(c2ccc(-c3cccc(NC(=O)c4ccco4)c3)nn2)CC1 | inconclusive: 16.4 µM [falling, single point] |  |
| c1ccc(C2=NNC(=NCc3ccc4c(c3)OCO4)SC2)cc1 | inconclusive: 25.9 µM [activator, single point] |  |

Source: PubChem BioAssay AID504444 (National Center for Advancing Translational Sciences (NCATS), 2011)
